Laboratory results as given in paper doi:10.1101/2021.11.02.466878.
No constants are given. Whether binding was seen depends on the method and setting. Some results given as binding are weak or reduced against the parent protein; the word gives no strength. For part of these data: Sequences can lack the tags named with a protein.

Key:
FLAG-tagged CstF64τ = target: T1, FLAG-tagged CstF64τ (UniProt Q9H0L4); test: pull-down
T1 sequence: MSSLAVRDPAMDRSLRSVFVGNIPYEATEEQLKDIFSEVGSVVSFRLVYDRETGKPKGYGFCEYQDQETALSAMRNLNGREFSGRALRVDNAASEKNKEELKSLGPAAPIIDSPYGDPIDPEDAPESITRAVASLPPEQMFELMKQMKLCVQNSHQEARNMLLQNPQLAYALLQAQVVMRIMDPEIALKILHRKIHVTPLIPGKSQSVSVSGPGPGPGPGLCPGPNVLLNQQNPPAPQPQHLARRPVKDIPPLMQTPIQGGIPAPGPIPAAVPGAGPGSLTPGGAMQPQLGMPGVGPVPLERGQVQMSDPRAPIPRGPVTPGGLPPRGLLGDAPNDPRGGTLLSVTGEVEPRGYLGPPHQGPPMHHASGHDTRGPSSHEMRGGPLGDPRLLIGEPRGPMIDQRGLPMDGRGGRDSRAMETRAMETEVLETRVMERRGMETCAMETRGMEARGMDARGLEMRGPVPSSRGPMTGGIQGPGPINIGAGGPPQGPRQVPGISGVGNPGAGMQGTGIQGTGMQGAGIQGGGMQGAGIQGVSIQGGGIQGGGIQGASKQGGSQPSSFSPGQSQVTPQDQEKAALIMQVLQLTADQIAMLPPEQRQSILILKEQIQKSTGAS

CstF77 = target: T2, CstF77 (UniProt Q12996); test: cross-linking
T2 sequence: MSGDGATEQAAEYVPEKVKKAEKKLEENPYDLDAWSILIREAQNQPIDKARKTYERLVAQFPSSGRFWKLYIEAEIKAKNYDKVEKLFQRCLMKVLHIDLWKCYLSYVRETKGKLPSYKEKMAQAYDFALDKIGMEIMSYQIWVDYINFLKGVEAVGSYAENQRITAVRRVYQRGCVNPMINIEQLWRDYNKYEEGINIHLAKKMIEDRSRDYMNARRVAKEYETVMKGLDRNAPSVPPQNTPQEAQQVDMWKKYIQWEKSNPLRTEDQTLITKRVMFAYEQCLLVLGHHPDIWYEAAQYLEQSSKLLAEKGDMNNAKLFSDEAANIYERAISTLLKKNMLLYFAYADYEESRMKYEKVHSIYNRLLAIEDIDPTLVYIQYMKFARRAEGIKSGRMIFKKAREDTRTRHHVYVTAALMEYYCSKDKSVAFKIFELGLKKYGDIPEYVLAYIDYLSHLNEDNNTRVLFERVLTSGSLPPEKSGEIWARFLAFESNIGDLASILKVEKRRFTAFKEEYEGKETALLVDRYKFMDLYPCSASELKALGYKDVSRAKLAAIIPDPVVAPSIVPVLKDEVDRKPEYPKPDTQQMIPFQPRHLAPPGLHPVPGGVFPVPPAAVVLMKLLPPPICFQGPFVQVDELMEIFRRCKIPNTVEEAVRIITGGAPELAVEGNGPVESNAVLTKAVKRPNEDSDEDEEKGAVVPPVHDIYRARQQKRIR

[1] = target: T3, symplekin, as subunit of purified recombinant CPSF or mCF3 (UniProt Q92797); test: cross-linking
T3 sequence: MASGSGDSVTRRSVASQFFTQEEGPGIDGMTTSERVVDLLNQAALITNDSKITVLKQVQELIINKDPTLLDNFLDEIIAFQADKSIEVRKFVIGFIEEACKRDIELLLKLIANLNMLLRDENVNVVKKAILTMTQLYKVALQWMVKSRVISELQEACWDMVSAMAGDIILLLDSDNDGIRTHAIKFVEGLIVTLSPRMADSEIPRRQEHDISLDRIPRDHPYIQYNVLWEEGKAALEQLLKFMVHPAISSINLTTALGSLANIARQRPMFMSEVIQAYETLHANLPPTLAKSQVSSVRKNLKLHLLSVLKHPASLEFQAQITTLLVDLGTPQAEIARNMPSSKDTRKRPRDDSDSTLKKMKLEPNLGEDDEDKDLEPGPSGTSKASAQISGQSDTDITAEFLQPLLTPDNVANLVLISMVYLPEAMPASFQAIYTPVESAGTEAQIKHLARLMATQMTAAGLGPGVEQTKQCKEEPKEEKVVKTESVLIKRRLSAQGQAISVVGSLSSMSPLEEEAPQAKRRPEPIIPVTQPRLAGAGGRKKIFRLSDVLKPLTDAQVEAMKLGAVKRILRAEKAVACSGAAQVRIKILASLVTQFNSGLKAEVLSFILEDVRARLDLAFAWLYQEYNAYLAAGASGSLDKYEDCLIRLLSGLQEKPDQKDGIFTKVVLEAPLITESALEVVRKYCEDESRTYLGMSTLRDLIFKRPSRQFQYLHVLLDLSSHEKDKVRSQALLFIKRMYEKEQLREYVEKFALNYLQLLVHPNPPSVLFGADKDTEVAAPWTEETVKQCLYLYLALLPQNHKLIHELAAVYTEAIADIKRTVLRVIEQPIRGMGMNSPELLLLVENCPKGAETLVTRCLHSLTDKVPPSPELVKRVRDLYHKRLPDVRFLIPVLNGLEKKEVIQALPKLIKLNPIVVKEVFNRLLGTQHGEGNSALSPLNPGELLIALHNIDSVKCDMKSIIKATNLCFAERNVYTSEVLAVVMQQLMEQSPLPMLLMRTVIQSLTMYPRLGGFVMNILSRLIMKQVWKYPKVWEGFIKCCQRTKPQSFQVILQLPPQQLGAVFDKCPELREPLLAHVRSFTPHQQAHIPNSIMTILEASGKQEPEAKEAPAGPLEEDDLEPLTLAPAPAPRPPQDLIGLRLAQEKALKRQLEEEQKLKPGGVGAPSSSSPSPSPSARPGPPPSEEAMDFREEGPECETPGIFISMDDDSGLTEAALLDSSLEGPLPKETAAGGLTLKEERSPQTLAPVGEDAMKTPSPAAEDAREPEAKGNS

CstF50 = target: T4, CstF50 (UniProt Q05048); test: cross-linking
T4 sequence: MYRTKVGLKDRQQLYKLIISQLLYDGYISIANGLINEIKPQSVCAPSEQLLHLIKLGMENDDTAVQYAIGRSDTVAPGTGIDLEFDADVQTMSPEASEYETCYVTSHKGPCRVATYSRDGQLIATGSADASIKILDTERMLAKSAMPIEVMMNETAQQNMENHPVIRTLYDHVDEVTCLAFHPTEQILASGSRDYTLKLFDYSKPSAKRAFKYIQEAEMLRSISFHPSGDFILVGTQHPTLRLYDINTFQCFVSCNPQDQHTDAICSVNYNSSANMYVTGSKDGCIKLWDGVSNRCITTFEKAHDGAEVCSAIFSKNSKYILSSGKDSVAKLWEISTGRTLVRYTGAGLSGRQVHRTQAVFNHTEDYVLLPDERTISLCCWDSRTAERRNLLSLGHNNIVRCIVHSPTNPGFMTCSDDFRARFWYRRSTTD

hFip1 (human), Q6UN15 = target: T5, hFip1 (human), Q6UN15; test: cross-linking; settings: remark: other sources report otherwise
T5 chain: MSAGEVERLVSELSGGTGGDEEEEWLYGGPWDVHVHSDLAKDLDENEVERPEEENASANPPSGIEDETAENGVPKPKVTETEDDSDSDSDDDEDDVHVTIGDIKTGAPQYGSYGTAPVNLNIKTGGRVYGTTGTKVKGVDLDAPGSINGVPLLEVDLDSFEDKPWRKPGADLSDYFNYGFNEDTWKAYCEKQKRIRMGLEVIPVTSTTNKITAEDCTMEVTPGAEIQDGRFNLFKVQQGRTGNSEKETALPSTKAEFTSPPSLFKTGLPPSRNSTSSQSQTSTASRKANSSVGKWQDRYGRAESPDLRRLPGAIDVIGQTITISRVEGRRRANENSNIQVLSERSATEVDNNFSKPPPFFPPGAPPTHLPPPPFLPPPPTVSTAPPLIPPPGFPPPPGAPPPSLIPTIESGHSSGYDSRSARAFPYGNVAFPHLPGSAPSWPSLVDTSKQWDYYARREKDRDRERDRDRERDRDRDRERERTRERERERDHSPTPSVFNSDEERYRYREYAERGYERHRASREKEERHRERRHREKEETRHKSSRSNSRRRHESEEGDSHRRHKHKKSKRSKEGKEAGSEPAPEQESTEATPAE

[2] = target: T6, hClp1, wild-type (human), Q92989; test: cross-linking; settings: remark: other sources report otherwise
T6 chain: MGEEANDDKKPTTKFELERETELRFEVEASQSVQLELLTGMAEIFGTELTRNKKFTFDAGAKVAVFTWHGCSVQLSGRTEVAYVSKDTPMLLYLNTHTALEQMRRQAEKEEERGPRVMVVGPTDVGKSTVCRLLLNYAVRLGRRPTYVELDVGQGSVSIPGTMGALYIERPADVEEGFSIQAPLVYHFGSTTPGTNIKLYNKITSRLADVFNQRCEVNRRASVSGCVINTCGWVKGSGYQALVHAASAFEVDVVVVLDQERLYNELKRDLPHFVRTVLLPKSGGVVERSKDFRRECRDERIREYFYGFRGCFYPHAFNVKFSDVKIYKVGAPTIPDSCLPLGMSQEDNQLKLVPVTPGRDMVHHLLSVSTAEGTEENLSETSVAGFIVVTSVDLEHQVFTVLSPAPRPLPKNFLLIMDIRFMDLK

B1: CstF64 (protein, UniProt P33240 1-577)
chain: MAGLTVRDPAVDRSLRSVFVGNIPYEATEEQLKDIFSEVGPVVSFRLVYDRETGKPKGYGFCEYQDQETALSAMRNLNGREFSGRALRVDNAASEKNKEELKSLGTGAPVIESPYGETISPEDAPESISKAVASLPPEQMFELMKQMKLCVQNSPQEARNMLLQNPQLAYALLQAQVVMRIVDPEIALKILHRQTNIPTLIAGNPQPVHGAGPGSGSNVSMNQQNPQAPQAQSLGGMHVNGAPPLMQASMQGGVPAPGQMPAAVTGPGPGSLAPGGGMQAQVGMPGSGPVSMERGQVPMQDPRAAMQRGSLPANVPTPRGLLGDAPNDPRGGTLLSVTGEVEPRGYLGPPHQGPPMHHVPGHESRGPPPHELRGGPLPEPRPLMAEPRGPMLDQRGPPLDGRGGRDPRGIDARGMEARAMEARGLDARGLEARAMEARAMEARAMEARAMEARAMEVRGMEARGMDTRGPVPGPRGPIPSGMQGPSPINMGAVVPQGSRQVPVMQGTGMQGASIQGGSQPGGFSPGQNQVTPQDHEKAALIMQVLQLTADQIAMLPPEQRQSILILKEQIQKSTGAP
FLAG-tagged CstF64τ
  binding: binds
CstF77
  binding: binds
[1]
  binding: binds
CstF50
  binding: binds

B2: hFip1, Q6UN15 1-594 (protein)
chain: T5 chain
hFip1 (human), Q6UN15
  binding: binds

B3: hClp1, wild-type, Q92989 1-425 (enzyme)
chain: T6 chain
[2]
  binding: binds
